Earlier results as cited in patent US6572896B1, “Methods for inhibiting cell motility” (A.T. Still University of Health Sciences, priority 1998, dated 2003).
For at least one compound, name, drawing or mass did not settle the structure.

Test system: A2058 human melanoma cells
Conditions: 100 μM; cited from earlier work

Which inhibition of motility does the source give for `COC(=O)C1=C(C)NC(C)=C(C(=O)OC)C1c1ccccc1[N+](=O)[O-]` [nifedipine, reference compound] here?
The inhibition of motility was “produce inhibition of motility”.
